In the supplement of paper PMC12067093, “Discovery and optimisation of a covalent ligand for TRIM25 and its application to targeted protein ubiquitination” (Chemical Science, 2025):
The other results are listed elsewhere or left out.

By UniProt entry, the sequences of proteins in these tests, tags left out. Where a name states a change or a piece, a line headed by the entry shows the natural chain unless it says otherwise.
UniProt Q9NQW7: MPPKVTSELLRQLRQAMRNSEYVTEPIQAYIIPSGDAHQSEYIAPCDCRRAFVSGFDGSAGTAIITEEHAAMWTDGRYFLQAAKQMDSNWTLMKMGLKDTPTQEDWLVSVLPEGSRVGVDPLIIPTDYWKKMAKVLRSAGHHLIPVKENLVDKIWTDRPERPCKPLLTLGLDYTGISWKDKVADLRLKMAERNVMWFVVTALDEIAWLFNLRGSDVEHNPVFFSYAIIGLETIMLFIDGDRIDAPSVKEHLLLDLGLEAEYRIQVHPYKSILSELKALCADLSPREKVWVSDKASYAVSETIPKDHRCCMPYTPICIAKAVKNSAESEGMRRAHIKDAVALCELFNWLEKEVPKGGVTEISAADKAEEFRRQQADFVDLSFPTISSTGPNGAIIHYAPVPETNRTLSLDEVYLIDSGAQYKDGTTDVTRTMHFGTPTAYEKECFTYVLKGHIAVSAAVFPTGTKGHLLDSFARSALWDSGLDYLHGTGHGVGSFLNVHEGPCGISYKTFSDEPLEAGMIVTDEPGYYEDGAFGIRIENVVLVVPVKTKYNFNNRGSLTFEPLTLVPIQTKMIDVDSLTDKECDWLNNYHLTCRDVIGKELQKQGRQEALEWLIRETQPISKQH
UniProt Q9BZH6: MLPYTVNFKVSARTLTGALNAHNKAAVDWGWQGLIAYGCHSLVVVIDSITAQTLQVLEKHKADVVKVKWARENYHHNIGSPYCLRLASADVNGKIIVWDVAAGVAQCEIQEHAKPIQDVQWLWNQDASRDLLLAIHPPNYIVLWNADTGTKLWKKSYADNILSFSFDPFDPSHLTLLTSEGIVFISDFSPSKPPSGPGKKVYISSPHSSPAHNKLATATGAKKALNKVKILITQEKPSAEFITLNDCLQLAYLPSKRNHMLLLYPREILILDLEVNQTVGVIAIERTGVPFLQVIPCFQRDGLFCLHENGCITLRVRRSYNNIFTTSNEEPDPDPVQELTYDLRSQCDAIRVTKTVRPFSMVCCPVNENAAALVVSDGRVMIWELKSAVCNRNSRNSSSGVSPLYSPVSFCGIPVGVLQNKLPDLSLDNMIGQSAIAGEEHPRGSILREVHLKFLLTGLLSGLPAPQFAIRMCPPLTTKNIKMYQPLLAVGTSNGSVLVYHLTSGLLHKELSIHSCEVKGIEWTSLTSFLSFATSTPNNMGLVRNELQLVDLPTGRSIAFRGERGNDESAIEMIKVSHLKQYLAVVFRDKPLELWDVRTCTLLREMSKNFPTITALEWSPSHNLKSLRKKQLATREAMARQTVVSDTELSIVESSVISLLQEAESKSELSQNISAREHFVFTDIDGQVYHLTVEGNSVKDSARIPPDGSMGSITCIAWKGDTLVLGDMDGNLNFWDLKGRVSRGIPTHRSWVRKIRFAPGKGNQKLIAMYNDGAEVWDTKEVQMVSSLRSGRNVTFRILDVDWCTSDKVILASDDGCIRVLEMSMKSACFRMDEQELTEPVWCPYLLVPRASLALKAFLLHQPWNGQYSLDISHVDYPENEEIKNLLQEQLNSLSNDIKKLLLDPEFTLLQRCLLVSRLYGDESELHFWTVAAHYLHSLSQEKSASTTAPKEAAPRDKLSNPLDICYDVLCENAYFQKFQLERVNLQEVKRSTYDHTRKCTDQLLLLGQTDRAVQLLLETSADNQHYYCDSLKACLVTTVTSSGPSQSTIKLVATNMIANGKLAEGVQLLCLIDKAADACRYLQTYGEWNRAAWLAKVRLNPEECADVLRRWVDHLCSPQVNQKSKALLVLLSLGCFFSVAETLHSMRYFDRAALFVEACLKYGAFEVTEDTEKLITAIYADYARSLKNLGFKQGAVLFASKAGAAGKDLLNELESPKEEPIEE
UniProt O75083: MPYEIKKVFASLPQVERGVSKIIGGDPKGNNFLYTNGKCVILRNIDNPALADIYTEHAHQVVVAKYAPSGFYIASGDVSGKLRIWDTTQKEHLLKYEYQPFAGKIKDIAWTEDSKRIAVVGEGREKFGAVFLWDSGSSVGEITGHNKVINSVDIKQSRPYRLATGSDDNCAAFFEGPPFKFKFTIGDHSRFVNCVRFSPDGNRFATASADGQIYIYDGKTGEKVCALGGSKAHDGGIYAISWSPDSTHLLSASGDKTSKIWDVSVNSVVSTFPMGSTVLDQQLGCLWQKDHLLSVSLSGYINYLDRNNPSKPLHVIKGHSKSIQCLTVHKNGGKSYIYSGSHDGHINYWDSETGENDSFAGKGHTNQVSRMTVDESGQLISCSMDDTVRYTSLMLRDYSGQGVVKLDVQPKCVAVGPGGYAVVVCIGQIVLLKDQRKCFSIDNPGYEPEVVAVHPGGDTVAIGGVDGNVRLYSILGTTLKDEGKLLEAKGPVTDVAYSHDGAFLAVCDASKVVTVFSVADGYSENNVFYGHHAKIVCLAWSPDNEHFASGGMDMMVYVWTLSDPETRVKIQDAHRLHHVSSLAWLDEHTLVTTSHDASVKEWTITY
UniProt Q8IWB7: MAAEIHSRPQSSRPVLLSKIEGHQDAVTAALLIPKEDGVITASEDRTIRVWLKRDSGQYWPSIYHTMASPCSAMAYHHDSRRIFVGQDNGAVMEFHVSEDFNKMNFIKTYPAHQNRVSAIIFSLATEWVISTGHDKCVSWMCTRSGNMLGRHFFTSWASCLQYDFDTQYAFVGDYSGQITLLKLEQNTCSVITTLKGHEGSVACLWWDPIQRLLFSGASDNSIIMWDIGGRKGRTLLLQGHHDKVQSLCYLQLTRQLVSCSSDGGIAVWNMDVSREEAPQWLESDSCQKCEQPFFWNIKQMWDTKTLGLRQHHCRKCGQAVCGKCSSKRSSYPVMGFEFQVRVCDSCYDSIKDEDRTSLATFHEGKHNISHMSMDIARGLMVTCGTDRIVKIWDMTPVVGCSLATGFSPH
UniProt Q8NI36: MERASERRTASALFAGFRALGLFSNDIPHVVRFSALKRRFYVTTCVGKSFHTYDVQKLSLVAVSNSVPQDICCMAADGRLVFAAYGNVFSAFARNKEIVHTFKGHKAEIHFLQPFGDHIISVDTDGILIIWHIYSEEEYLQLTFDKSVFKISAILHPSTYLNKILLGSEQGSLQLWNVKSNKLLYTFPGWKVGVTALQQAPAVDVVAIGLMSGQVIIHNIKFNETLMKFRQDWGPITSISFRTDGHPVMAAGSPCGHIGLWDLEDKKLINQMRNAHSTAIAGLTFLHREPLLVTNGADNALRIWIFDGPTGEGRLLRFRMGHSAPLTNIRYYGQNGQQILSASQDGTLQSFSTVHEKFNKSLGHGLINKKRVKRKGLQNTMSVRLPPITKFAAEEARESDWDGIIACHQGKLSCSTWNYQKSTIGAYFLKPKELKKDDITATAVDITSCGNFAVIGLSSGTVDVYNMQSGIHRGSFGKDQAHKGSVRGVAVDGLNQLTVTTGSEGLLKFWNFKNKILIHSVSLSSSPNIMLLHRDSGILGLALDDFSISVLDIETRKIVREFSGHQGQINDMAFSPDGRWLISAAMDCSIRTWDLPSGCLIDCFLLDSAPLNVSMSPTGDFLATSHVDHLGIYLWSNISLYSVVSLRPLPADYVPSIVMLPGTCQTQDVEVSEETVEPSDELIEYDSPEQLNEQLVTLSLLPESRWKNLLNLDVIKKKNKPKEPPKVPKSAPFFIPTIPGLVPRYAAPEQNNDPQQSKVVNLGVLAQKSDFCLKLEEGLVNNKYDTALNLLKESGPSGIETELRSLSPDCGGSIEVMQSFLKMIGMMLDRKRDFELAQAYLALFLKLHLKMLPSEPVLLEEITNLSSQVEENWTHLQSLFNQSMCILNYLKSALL
UniProt O75717: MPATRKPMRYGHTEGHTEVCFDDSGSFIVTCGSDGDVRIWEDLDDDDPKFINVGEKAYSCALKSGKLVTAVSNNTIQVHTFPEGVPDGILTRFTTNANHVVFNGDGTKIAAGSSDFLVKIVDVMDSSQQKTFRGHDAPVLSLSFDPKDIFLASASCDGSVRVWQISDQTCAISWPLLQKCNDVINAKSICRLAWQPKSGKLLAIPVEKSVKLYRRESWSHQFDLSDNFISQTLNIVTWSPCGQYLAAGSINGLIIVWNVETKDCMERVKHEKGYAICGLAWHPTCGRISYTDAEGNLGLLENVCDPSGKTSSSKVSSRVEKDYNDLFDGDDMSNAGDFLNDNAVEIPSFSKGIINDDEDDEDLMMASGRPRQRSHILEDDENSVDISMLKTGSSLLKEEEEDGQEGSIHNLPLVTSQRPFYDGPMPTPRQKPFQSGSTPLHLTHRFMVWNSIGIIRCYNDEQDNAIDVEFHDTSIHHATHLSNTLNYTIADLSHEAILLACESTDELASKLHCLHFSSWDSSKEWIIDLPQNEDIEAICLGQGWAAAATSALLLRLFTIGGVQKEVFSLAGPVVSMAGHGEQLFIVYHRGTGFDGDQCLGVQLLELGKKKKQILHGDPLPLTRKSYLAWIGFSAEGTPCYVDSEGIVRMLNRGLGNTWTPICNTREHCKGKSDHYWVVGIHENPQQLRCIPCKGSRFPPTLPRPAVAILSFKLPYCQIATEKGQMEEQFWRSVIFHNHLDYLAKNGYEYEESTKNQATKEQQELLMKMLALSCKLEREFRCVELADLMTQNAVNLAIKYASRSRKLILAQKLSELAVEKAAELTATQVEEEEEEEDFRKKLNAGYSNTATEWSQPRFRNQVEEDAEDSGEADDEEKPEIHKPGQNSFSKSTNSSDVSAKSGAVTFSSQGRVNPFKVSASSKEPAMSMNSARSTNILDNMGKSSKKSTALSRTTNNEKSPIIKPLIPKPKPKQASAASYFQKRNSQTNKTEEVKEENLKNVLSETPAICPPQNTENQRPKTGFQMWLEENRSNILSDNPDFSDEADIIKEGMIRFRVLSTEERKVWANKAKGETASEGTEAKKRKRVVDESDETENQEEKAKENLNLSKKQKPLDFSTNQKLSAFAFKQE
UniProt O14980, whole entry, looked up: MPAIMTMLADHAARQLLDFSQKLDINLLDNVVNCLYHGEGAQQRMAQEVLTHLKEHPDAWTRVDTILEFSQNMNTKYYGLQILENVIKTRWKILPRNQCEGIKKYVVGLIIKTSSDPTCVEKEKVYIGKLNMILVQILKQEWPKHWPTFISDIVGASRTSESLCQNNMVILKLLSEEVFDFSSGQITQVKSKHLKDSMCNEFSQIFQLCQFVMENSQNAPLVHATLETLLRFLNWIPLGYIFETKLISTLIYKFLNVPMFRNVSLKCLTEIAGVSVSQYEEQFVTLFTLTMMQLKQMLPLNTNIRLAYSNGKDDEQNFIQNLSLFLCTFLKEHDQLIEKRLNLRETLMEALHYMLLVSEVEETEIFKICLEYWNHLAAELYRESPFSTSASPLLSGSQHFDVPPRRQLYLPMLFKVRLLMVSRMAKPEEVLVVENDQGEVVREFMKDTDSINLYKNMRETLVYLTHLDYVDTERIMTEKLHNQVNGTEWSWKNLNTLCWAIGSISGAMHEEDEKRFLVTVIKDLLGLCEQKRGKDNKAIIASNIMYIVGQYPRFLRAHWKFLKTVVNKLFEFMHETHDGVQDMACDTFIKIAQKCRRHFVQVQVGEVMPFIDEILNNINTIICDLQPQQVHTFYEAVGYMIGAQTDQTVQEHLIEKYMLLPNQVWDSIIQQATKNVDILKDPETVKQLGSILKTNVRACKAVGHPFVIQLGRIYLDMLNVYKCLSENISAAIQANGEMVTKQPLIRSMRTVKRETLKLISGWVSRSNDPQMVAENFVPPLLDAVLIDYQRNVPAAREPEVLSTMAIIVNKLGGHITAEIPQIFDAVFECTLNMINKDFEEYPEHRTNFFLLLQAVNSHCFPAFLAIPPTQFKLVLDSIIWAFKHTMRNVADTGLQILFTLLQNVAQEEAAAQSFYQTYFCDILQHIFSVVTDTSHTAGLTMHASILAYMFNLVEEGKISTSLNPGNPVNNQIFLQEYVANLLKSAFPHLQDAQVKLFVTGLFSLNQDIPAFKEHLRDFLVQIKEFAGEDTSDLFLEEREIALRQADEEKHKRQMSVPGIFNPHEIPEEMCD
UniProt Q9H6Y2: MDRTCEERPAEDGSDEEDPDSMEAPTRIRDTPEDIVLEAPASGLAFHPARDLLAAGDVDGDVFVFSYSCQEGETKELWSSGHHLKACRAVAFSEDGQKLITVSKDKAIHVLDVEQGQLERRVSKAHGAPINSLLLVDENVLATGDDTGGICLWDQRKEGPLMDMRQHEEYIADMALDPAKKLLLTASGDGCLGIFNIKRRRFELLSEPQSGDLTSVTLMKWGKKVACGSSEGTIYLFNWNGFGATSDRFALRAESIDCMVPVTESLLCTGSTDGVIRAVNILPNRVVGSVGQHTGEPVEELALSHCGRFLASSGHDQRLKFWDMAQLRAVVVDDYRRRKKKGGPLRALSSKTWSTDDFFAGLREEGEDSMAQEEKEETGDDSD

Compound: Cc1cc(ccc1-c1ccccc1)C(=O)N1CCCN(CC1)C(=O)CCl [compound 10]
Experiment: probe-labelled cysteine peptide fold change vs DMSO (competition) (log2 fold change); higher = less target engagement (more negative = stronger competition)
Conditions: THP-1, incubation time: 4 h
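Further: competitive profiling in live THP-1 cells: cysteine peptides tagged with an iodoacetamide desthiobiotin (IA-DTB) probe, intensity after compound treatment relative to DMSO-treated cells.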

Row | Target | probe-labelled cysteine peptide fold change (10 µM) | probe-labelled cysteine peptide fold change (50 µM)
1 | WDR3_Q9UNX4_448_STLQCIR (UniProt Q9UNX4) | 0.178 | 0.222
2 | XPNPEP1_Q9NQW7_592_ECDWLNNYHLTCR (UniProt Q9NQW7) | -0.00678 | -0.0935
3 | WDFY3_Q8IZQ1_896_NQQVMCEAGLHAR (UniProt Q8IZQ1) | 0.129 | 0.165
4 | WDR48_Q8TAF3_366_GGASIIQCHILNDKR (UniProt Q8TAF3) | 0.239 | -0.0402
5 | WDR75_Q8IWA0_306_LGATIEHISVSPAGDLFCTSHSDNK (UniProt Q8IWA0) | 0.102 | 0.192
6 | WDR11_Q9BZH6_107_IIVWDVAAGVAQCEIQEHAK (UniProt Q9BZH6) | 0.0242 | 0.291
7 | WDR1_O75083_507_GPVTDVAYSHDGAFLAVCDASK (UniProt O75083) | 0.0722 | 0.166
8 | WDFY1_Q8IWB7_204_GHEGSVACLWWDPIQR (UniProt Q8IWB7) | 0.199 | 0.112
9 | WDR41_Q9HAD4_291_SNDISIHHFTCDEENVFAAVGR (UniProt Q9HAD4) | 0.135 | 0.418
10 | WDR36_Q8NI36_311_TDGHPVMAAGSPCGHIGLWDLEDKK (UniProt Q8NI36) | 0.0762 | -0.28
11 | WDFY4_Q6ZS81_858_LYHEDHPQLSEEIQCSLASHIQSLVK (UniProt Q6ZS81) | -0.129 | -0.17
12 | WDR81_Q562E7_215_GSPACPSLLR (UniProt Q562E7) | -0.185 | -0.529
13 | WDR18_Q9BV38_384_LGLHQQGSEPSYLDRTEQLQAVLCSTMEK (UniProt Q9BV38) | 0.00371 | -0.169
14 | WDFY4_Q6ZS81_2352_EAEGEPDEVGVDCTQLTFFPALHESLHSEDFLELCR (UniProt Q6ZS81) | -0.125 | -0.598
15 | WDR7_Q9Y4E6_326_ELLICPPVTR (UniProt Q9Y4E6) | 0.0559 | 0.0701
16 | WDHD1_O75717_285_GYAICGLAWHPTCGR (UniProt O75717) | -0.0417 | -0.0589
17 | WRN_Q14191_1090_EHCYNQVPVELSTEK (UniProt Q14191) | -0.552 | -0.379
18 | WRN_Q14191_1367_HGPDSGLQPSCDVNK (UniProt Q14191) | -0.126 | -0.11
19 | WDR70_Q9NW82_430_PLFSASGLPTMFPMTDCCFSPDDK (UniProt Q9NW82) | -0.00787 | -0.373
20 | WDR36_Q8NI36_463_ESDWDGIIACHQGK (UniProt Q8NI36) | -0.0625 | -0.0725
21 | WDR91_A4D1P6_512_ILSLACSPNGASFVCSAAAPSLTSQVDFSAPDIGSK (UniProt A4D1P6) | 0.0949 | 0.122

An excerpt of these results, in markdown:

| Row | Target | probe-labelled cysteine peptide fold change (10 µM) | probe-labelled cysteine peptide fold change (50 µM) |
| --- | --- | --- | --- |
| 11 | WDFY4_Q6ZS81_858_LYHEDHPQLSEEIQCSLASHIQSLVK (UniProt Q6ZS81) | -0.129 | -0.17 |
| 12 | WDR81_Q562E7_215_GSPACPSLLR (UniProt Q562E7) | -0.185 | -0.529 |
| 13 | WDR18_Q9BV38_384_LGLHQQGSEPSYLDRTEQLQAVLCSTMEK (UniProt Q9BV38) | 0.00371 | -0.169 |
| 14 | WDFY4_Q6ZS81_2352_EAEGEPDEVGVDCTQLTFFPALHESLHSEDFLELCR (UniProt Q6ZS81) | -0.125 | -0.598 |
| 15 | WDR7_Q9Y4E6_326_ELLICPPVTR (UniProt Q9Y4E6) | 0.0559 | 0.0701 |

More results

Row | Target | probe-labelled cysteine peptide fold change (10 µM) | probe-labelled cysteine peptide fold change (50 µM)
22 | WDR6_Q9NNW5_688_ALGGCTRPHVILR (UniProt Q9NNW5) | -0.00601 | -0.406
23 | XPC_Q01831_790_KLDIDCVQAITGFDFHGGYSHPVTDGYIVCEEFK (UniProt Q01831) | 0.224 | -0.446
24 | WNK4_Q96J92_412_EIIEGCIR (UniProt Q96J92) | 0.155 | 0.0648
25 | WDR59_Q6PJI9_233_YLNILPCQVPVWK (UniProt Q6PJI9) | 0.199 | 0.28
26 | WDFY4_Q6ZS81_878_QVMCEAGLLGTLMASCHR (UniProt Q6ZS81) | 0.0987 | -0.0126
27 | WDCP_Q9H6R7_472_LIESLSPDFCHQNK (UniProt Q9H6R7) | -0.22 | -0.82
28 | WDFY3_Q8IZQ1_3027_EPVGQIVCTDK (UniProt Q8IZQ1) | -0.225 | -0.00578
29 | WDR43_Q15061_131_VNCIQWHQDSGCLYSCSDDK (UniProt Q15061) | -0.0334 | 0.0669
30 | WDFY1_Q8IWB7_287_EEAPQWLESDSCQK (UniProt Q8IWB7) | 0.0438 | 0.08
31 | WDFY3_Q8IZQ1_16_QEECSPQDNALGLMHLR (UniProt Q8IZQ1) | -0.209 | -0.373
32 | XPO1_O14980_498_NLNTLCWAIGSISGAMHEEDEK (UniProt O14980) | -0.0104 | 0.087
33 | WDR77_Q9BQA1_26_EWNLPPNAPACMER (UniProt Q9BQA1) | -0.146 | -0.099
34 | WIPI2_Q9Y4P8-2_401_AYTDDLGAVGGACLEDEASALRLDEDSEHPPMILR (UniProt Q9Y4P8) | -0.404 | -0.485
35 | WDR7_Q9Y4E6_69_ALLFGHTASITCLSK (UniProt Q9Y4E6) | -0.00135 | 0.0467
36 | XPNPEP1_Q9NQW7_316_CCMPYTPICIAK (UniProt Q9NQW7) | 0.0364 | -0.0969
37 | XAB2_Q9HCS7_695_AIYSFCSQICDPR (UniProt Q9HCS7) | 0.278 | 0.149
38 | WDR75_Q8IWA0_451_INMPHEDCITALCFCNAEK (UniProt Q8IWA0) | 0.146 | 0.304
39 | WEE1_P30291_263_TYWNDSCGEDMEASDYELEDETRPAKR (UniProt P30291) | -0.412 | -0.423
40 | WDR18_Q9BV38_384_TEQLQAVLCSTMEK (UniProt Q9BV38) | -0.0324 | 0.0157
41 | WWOX_Q9NZC7_155_SFALHGAHVILACR (UniProt Q9NZC7) | 0.00648 | 0.191
42 | XPNPEP1_Q9NQW7_443_ECFTYVLK (UniProt Q9NQW7) | 0.0722 | 0.0698

Row | Target | probe-labelled cysteine peptide fold change (10 µM) | probe-labelled cysteine peptide fold change (50 µM)
43 | WDR61_Q9GZS3_266_TCVHTFFDHQDQVWGVK (UniProt Q9GZS3) | -0.0412 | -0.0496
44 | WDR34_Q96EX3_529_EAEDLDCLAAEVAA (UniProt Q96EX3) | -0.0979 | 0.196
45 | WNK3_Q9BYP7_278_CDNIFITGPTGSVK (UniProt Q9BYP7) | -0.0357 | -0.0535
46 | WDR81_Q562E7_464_SVLCGHVR (UniProt Q562E7) | -0.0534 | -0.275
47 | WDR36_Q8NI36_470_LSCSTWNYQK (UniProt Q8NI36) | -0.223 | -0.0146
48 | WDR13_Q9H1Z4_432_QGACVVTGSEDMCVHFFDVER (UniProt Q9H1Z4) | -0.154 | -0.222
49 | WDR76_Q9H967_562_FQAMWDPKQEDCVIVGSMAHPR (UniProt Q9H967) | -0.194 | -0.109
50 | WDR77_Q9BQA1_186_DSVFLSCSEDNR (UniProt Q9BQA1) | 0.136 | 0.227
51 | WDR12_Q9GZL7_205_FCSGSWDK (UniProt Q9GZL7) | -0.147 | -0.0496
52 | WDHD1_O75717_170_VWQISDQTCAISWPLLQK (UniProt O75717) | -0.0868 | 0.109
53 | WWP2_O00308_186_HQPPSTNCFGGR (UniProt O00308) | -0.217 | -0.439
54 | WDHD1_O75717_1008_NVLSETPAICPPQNTENQRPK (UniProt O75717) | -0.0327 | -0.0281
55 | WDR1_O75083_325_SIQCLTVHK (UniProt O75083) | 0.0015 | -0.0707
56 | WDR11_Q9BZH6_411_NSSSGVSPLYSPVSFCGIPVGVLQNK (UniProt Q9BZH6) | 0.177 | 0.0096
57 | WDR41_Q9HAD4_186_NCVVAAVGK (UniProt Q9HAD4) | 0.2 | 0.101
58 | XPC_Q01831_680_DCVHTLHSR (UniProt Q01831) | 0.0816 | 0.0167
59 | WDR37_Q9Y2I8_329_TANLYDVETSELVHSLTGHDQELTHCCTHPTQR (UniProt Q9Y2I8) | 0.139 | -0.257
60 | WDR13_Q9H1Z4_423_QGACVVTGSEDMCVHFFDVER (UniProt Q9H1Z4) | 0.278 | -0.162
61 | WDR43_Q15061_291_LAVVCR (UniProt Q15061) | 0.0146 | 0.0317
62 | WDFY1_Q8IWB7_189_LEQNTCSVITTLK (UniProt Q8IWB7) | 0.557 | 0.736
63 | WDR62_O43379_539_VEAHDAEVLCLEYSKPETGLTLLASASR (UniProt O43379) | 0.093 | -0.0307

Row | Target | probe-labelled cysteine peptide fold change (10 µM) | probe-labelled cysteine peptide fold change (50 µM)
64 | WDR33_Q9C0J8_120_CPVFVVR (UniProt Q9C0J8) | 0.06 | 0.0127
65 | WDR43_Q15061_307_DGQVHLFEHILNGYCK (UniProt Q15061) | 0.00548 | -0.2
66 | WDR47_O94967_672_GSIYCVAWSPCGQLLATGSNDK (UniProt O94967) | -0.439 | -1.25
67 | XPO1_O14980_498_NLNTLCWAIGSISGAMHEEDEKR (UniProt O14980) | -0.0055 | -0.265
68 | WDR55_Q9H6Y2_268_AESIDCMVPVTESLLCTGSTDGVIR (UniProt Q9H6Y2) | 0.135 | 0.421
69 | WDFY4_Q6ZS81_88_AWEHSVGIICFPSLQR (UniProt Q6ZS81) | -0.23 | 0.423
70 | XIAP_P98170_465+471_NIAIVFVPCGHLVTCK (UniProt P98170) | 0.0779 | -0.137
71 | WDR55_Q9H6Y2_306_VVGSVGQHTGEPVEELALSHCGR (UniProt Q9H6Y2) | 0.0947 | -0.177
72 | WDHD1_O75717_156_DIFLASASCDGSVR (UniProt O75717) | 0.0733 | 0.308
73 | WDR26_Q9H7D7_577_KYQGVTQGFYTIHSCFGGHNEDFIASGSEDHK (UniProt Q9H7D7) | 0.305 | 0.234
74 | WDR37_Q9Y2I8_329+330_TANLYDVETSELVHSLTGHDQELTHCCTHPTQR (UniProt Q9Y2I8) | -0.208 | -0.203
75 | XPA_P23025_126+129_EFMDSYLMNHFDLPTCDNCR (UniProt P23025) | 0.318 | -0.612
76 | WDR59_Q6PJI9_737_QLLESLLAHYCR (UniProt Q6PJI9) | 0.158 | 0.178
77 | WDR91_A4D1P6_366_KPEASGPEAEPCPELHTEPVEPLTR (UniProt A4D1P6) | -0.183 | -0.178
78 | WDR55_Q9H6Y2_5_TCEERPAEDGSDEEDPDSMEAPTR (UniProt Q9H6Y2) | -0.668 | -1.19
79 | XPC_Q01831_224_NNICSQPDLHAIGLSIIPAR (UniProt Q01831) | -0.112 | 0.0383
80 | WDR91_A4D1P6_704_VLESCLSLGGHR (UniProt A4D1P6) | 0.207 | 0.18
81 | WDR11_Q9BZH6_83_ENYHHNIGSPYCLR (UniProt Q9BZH6) | -0.289 | -0.894
82 | WDR91_A4D1P6_351_ELFSTTTSQCAEK (UniProt A4D1P6) | -0.291 | -0.214
